Source: PMC12772319
Results are given in words; binding and its absence hold for the method and conditions named. A result given as binding can be weak or reduced; the word gives no strength. Sequences can lack the tags named with a protein.

Molecular target: BD-EgTR2 (full-length EgTR2 fused to the Gal4 DNA binding domain) (E. granulosus s.s.)
Assay: two-hybrid; Gal4 system; activation-domain (pGADT7) and DNA-binding-domain (pGBKT7) fusions co-transformed into yeast Y2HGold; selective media, 5 days at 30°C; high stringency SD/-Trp/-Leu/-Ade/-His/X-α-gal/AbA, low stringency SD/-Trp/-Leu/X-α-gal/AbA

B1: AD-HsBMP2 (human BMP2 fused to the Gal4 activation domain) (ligand, UniProt P12643 1-396)
chain: MVAGTRCLLALLLPQVLLGGAAGLVPELGRRKFAAASSGRPSSQPSDEVLSEFELRLLSMFGLKQRPTPSRDAVVPPYMLDLYRRHSGQPGSPAPDHRLERAASRANTVRSFHHEESLEELPETSGKTTRRFFFNLSSIPTEEFITSAELQVFREQMQDALGNNSSFHHRINIYEIIKPATANSKFPVTRLLDTRLVNQNASRWESFDVTPAVMRWTAQGHANHGFVVEVAHLEEKQGVSKRHVRISRSLHQDEHSWSQIRPLLVTFGHDGKGHPLHKREKRQAKHKQRKRLKSSCKRHPLYVDFSDVGWNDWIVAPPGYHAFYCHGECPFPLADHLNSTNHAIVQTLVNSVNSKIPKACCVPTELSAISMLYLDENEKVVLKNYQDMVVEGCGCR
  binding: binds
